# This is one part of the list. Further columns of the screen follow, without active or inactive calls. Most of these compounds were active or inconclusive in the main read-out, so they are no random draw. Words in brackets tell the shape of the fitted curve; partial curves, single points and poor fits give uncertain potencies.
# Experiment: qHTS Assay for Lipid Storage Modulators in Drosophila S3 Cells;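 for cell number change: cells counted by Cell Tracker Red CMTPX staining in the red channel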
# Conditions: BODIPY lipid droplet fluorescence, 18-24 h; for cell number change: measured here: cell count max response, cells fed with added oleic acid
# Method in brief: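 Drosophila S3 cells got compounds at several concentrations plus oleic acid (400 uM solution). Laser-scanning cytometry with 488 nm excitation read lipid droplets at 500-530 nm and cells at 575-640 nm. Percent activity was relative to 20 uM Triacsin C.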
# [1] = measured here: lipid fluorescence (Fed channel) AC50, cells fed with added oleic acid
# [2] = measured here: cell number channel AC50, cells fed with added oleic acid
SMILES,cell number change,AC50 [1],AC50 [2]
COCCn1c(C)cc(C(=O)COC(=O)CNC(=O)c2ccco2)c1C,7.64%,"0.206 µM [falling, single point]",–
COc1cccc(CC(=O)N[C@@H](CCSC)c2nc3ccccc3[nH]2)c1,6.42%,–,–
Cc1cc(C)nc(N/N=C/c2cc3c(cc2[N+](=O)[O-])OCO3)n1,16.9%,"0.116 µM [rising, partial curve, poor fit]","4.11 µM [rising, partial curve, poor fit]"
c1ccc2c(c1)ncn2CCn1cnc2ccccc21,33.2%,"29.1 µM [rising, single point]","0.206 µM [rising, full curve, poor fit]"
O=C(CCCOc1ccccc1)NCc1ccco1,154%,–,–
COc1ccc(NC(=O)CCCCCN2C(=O)[C@@H]3Cc4ccccc4CN3C2=O)cc1Cl,-6.84%,"3.66 µM [rising, partial curve, poor fit]",–
Cc1cc(NS(=O)(=O)c2ccc(NC(=O)c3ccc(Cl)cc3[N+](=O)[O-])cc2)no1,-20.7%,–,–
CCOc1ccc(C(=O)CCC(=O)N2CCC(C(=O)OC)CC2)cc1,–,"29.1 µM [falling, single point]",–
COc1ccc(CCC(=O)Nc2ccc(C)c([N+](=O)[O-])c2)cc1,4.55%,"2.91 µM [rising, full curve, poor fit]",–
CCOC(=O)N1CCC(NC(=O)C2CCN(S(=O)(=O)c3c(C)noc3C)CC2)CC1,21.9%,–,–
COc1cccc(OC)c1OCCCCCCN1CCN(C)CC1,-11.1%,"8.2 µM [falling, partial curve]",–
O=S(=O)(c1ccccc1Cl)N1CCC(O)(c2ccc3c(c2)OCO3)CC1,0.534%,"0.326 µM [falling, partial curve]",–
O=C(N/N=C/c1cn(-c2ccccc2)nc1-c1cc2ccccc2o1)c1cccnc1,-58%,"20.6 µM [falling, single point]","29.1 µM [falling, single point]"
COc1cccc(NC(=O)COC(=O)C2CCN(S(=O)(=O)c3cccs3)CC2)c1,–,"6.51 µM [rising, single point]",–
COC(=O)NCC12CC3CC(C1)CC(CNC(=O)OC)(C3)C2,-2.38%,"32.6 µM [falling, single point]",–
CC(=O)c1c(C)[nH]c(C(=O)Nc2cccc(S(=O)(=O)N3CCCCC3)c2)c1C,-33.3%,"3.26 µM [falling, full curve]","18.4 µM [falling, partial curve]"
CCOC(=O)CN(C(=O)Cn1nnc(-c2ccc(C)cc2)n1)C(CC)C(=O)NC1CCCC1 (centres undefined),5.17%,–,–
O=C(NCc1ccncc1)C1COc2ccccc2O1 (centres undefined),21.1%,"18.4 µM [rising, single point]",–
CCOc1[nH]n(-c2ccc(Cl)cc2)c(=O)c1C=Nc1ccc(OC)cc1,-28.4%,–,–
O=C(CCCn1c(=O)[nH]c2ccsc2c1=O)N1CCN(Cc2ccc3c(c2)OCO3)CC1,-44.6%,–,"23.1 µM [falling, single point]"
CC(/C=N/NC(=O)c1cc(-c2ccc(Cl)cc2)nc2ccccc12)=C\c1ccco1,–,"9.2 µM [rising, partial curve]","3.26 µM [rising, single point]"

# Looked up above.
# AC50 [1] with CCOc1ccc(C(=O)CCC(=O)N2CCC(C(=O)OC)CC2)cc1 is entered as 29.1 µM [falling, single point]
# cell number change with CCOC(=O)N1CCC(NC(=O)C2CCN(S(=O)(=O)c3c(C)noc3C)CC2)CC1 is entered as 21.9%

# Remaining list, next part:

SMILES,cell number change,AC50 [1],AC50 [2]
COc1ccc(Sc2nc(-c3ccccn3)ncc2OC)cc1,-18.1%,"0.411 µM [rising, full curve, poor fit]",–
O=C(OCC#CCSc1nnc(-c2cccc3ccccc23)o1)c1cnc[nH]1,38.8%,"23.1 µM [rising, partial curve, poor fit]","0.517 µM [rising, full curve, poor fit]"
Cc1cc(NC(=O)c2ccccc2O)nc(C)n1,-0.366%,"4.61 µM [falling, single point]",–
Cc1cc(C(F)(F)F)n(-c2nc(C(=O)NN)cs2)n1,55.5%,"25.9 µM [rising, single point]","5.17 µM [rising, single point]"
O=C(CSc1nnc(-c2ccco2)o1)N1c2ccccc2CCc2ccccc21,-38.8%,–,"2.59 µM [falling, full curve]"
CC1CCCN(C(=O)CN2CCN(C(=O)c3ccco3)CC2)C1 (centres undefined),-5.4%,"0.326 µM [falling, full curve]","1.03 µM [falling, full curve]"
Cc1occc1C(=O)NCc1cccc(CNC(=O)c2ccoc2C)c1,-34.3%,–,"20.6 µM [falling, partial curve, poor fit]"
CC(OC(=O)c1ccc([N+](=O)[O-])s1)C(=O)NC1CCCCC1C (centres undefined),-0.0612%,"0.259 µM [rising, full curve, poor fit]",–
CN1CCN(NC(=O)/C=C/c2ccc(C(C)(C)C)cc2)CC1,-6.44%,"0.58 µM [falling, single point]",–
Cc1cccc(C)c1NC(=O)CN(C)C(=O)c1ccccc1OCc1ccc(F)cc1,–,"0.0651 µM [rising, full curve, poor fit]",–
c1cc(-c2noc(CCC3CCCC3)n2)ccn1,-9.18%,"7.31 µM [rising, partial curve]",–
Cc1csc2ncc(C(=O)NCCc3ccccc3)c(=O)n12,–,"0.651 µM [rising, full curve]","0.411 µM [rising, full curve]"
O=C(NCCCO)c1ccc(CSc2nc3ccccc3[nH]2)cc1,-24.1%,"16.4 µM [falling, single point]",–
Cc1nc2cc(Nc3nnc(-c4ccccc4)c4ccccc34)ccc2n1C,–,"8.2 µM [falling, partial curve]",–
Cc1ccc(S(=O)(=O)NCC(=O)OCc2nnc(-c3ccccc3)o2)cc1,–,"0.58 µM [rising, single point]",–
COc1cc(/C=N/NC(=O)c2cccnc2)ccc1OS(=O)(=O)c1ccc(C)cc1,1.91%,–,–
O=C(CSc1nc(O)cc(=O)[nH]1)N1CCCc2ccccc21,-22.7%,"0.164 µM [falling, full curve, poor fit]",–
CCc1ccc(NC(=O)C2CCN(S(=O)(=O)c3ccc4c(c3)NC(=O)CO4)CC2)cc1,-21.2%,"4.11 µM [rising, partial curve, poor fit]",–
CC1=C(C(=O)OC2CCCCC2)C(c2ccc(N(C)C)cc2)NC(=O)N1 (centres undefined),-29.7%,–,–
O=[N+]([O-])c1ccc(C2CCCC/C2=N/OCc2ccc(F)cc2)c([N+](=O)[O-])c1 (centres undefined),-27.4%,"16.4 µM [falling, single point]",–
COC(=O)c1ccc(OC(=O)c2ccccc2F)cc1,10.6%,"4.61 µM [falling, partial curve, poor fit]","6.51 µM [falling, single point]"

SMILES,cell number change,AC50 [1],AC50 [2]
Cc1cc(CNC(=O)COc2ccc(F)cc2Cl)cc(C)c1O,34.2%,–,"6.51 µM [rising, single point]"
CCOC(=O)CCCNC(=O)CN1C(=O)NC2(CCCCCC2)C1=O,3.98%,–,–
CCN(CC(=O)Nc1ccc(NC(C)=O)cc1)C(=O)C1(c2ccccc2)CC1,12.3%,"32.6 µM [rising, single point]",–
COc1cc2c(cc1OC)C(c1cccc(Cl)c1)CC(=O)N2 (centres undefined),-19%,–,–
Cc1cc(C(=O)O)ccc1NCc1ccncc1,7.12%,"18.4 µM [falling, single point]",–
COc1ccc(NC(=O)CCc2nc(-c3ccc(C)cc3)no2)cc1Cl,-5.37%,–,–
Cc1ccc2nc(Nc3ccc(C)c(C)c3)c3nncn3c2c1,6.94%,"29.1 µM [rising, single point]",–
Cc1cc(C)cc(NC(=O)CN2CCN(c3ccccc3)CC2)c1,-48.1%,"0.366 µM [falling, full curve]","13 µM [falling, partial curve, poor fit]"
COc1cccc(C(=O)NNC(=O)c2ccccc2Br)c1,-0.0113%,"0.651 µM [falling, single point]",–
CCN(CC)C1=N/C(=C\c2ccco2)C(=O)N1c1ccccc1,550%,"10.3 µM [rising, partial curve]","18.4 µM [rising, partial curve]"
COc1ccc2cc(C(=O)N3CCN(c4ccc(F)cc4)CC3)[nH]c2c1,–,"6.51 µM [falling, single point]",–
CCOc1cccc(C(=O)Nc2cccc(C(C)=O)c2)c1,29.2%,–,–
COc1cc2ccccc2cc1C(=O)N/N=C/c1ccc2c(c1)OCO2,-3.47%,"6.51 µM [rising, single point]",–
COc1cccc(OC)c1C(=O)Nc1sc2c(c1C(N)=O)CCN(Cc1ccccc1)C2,11%,–,–
Cc1c(C(=O)N2CCCCC2)sc(NC(=O)C2CC2)c1C#N,38.1%,–,"5.17 µM [rising, partial curve]"
CCOC(=O)c1sc(=S)n(-c2ccccc2Cl)c1SC,-20.6%,–,–
COc1ccc(C(=O)Nc2nncs2)cc1S(=O)(=O)N1CC(c2ccccc2)CC1=O (centres undefined),0.845%,"5.17 µM [falling, single point]",–
O=C(O)CCCCOn1ccnc1,6.23%,"0.146 µM [falling, partial curve, poor fit]",–
O=S1(=O)CCN2C(c3cccc4ccccc34)=CSC2=N1,-28.2%,"0.291 µM [falling, partial curve, poor fit]",–
CCN(CC1CCCN(CCc2cccc(F)c2)C1)C(=O)c1cc(C)oc1C (centres undefined),29.2%,"29.1 µM [falling, single point]",–

# Source: PubChem BioAssay AID2685 (National Center for Advancing Translational Sciences (NCATS), 2010)
